Measured values: paper PMC8216282, “Structural basis for the dynamics of human methionyl-tRNA synthetase in multi-tRNA synthetase complexes” (Nucleic Acids Research, 2021)
No constants are given. Whether binding was seen depends on the method and setting. For part of these data: Binding seen in cells or lysates may run through a third protein. Some results given as binding are weak or reduced against the parent protein; the word gives no strength. For part of these data: Sequences can lack the tags named with a protein. Each block holds one binder with its values, some of them ahead of it.

Assays:
[1] = molecular target: human MRS without the N-terminal GST domain (MRS 221-900) (human) (UniProt P56192); test: SEC; Superdex 200 10/300 column, Tris-HCl pH 7.5, 150 mM NaCl; molecular weights from a calibration curve of standards; both purified
[2] = molecular target: T1, AIMP3 with the nanoluciferase large subunit at its C-terminus (AIMP3-LgBit) (human) (UniProt O43324); test: split reporter; NanoBiT; LgBit on the N- or C-terminus of AIMP3, SmBit on the N- or C-terminus of MRS or on AIMP3; co-expressed in CHO-K1 cells; luminescence measured with cell-permeable substrate
T1 sequence: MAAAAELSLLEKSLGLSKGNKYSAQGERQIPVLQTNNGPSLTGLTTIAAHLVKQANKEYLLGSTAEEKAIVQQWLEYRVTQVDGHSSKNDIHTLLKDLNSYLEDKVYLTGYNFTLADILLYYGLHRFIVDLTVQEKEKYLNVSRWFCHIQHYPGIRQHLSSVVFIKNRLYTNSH

[3] = molecular target: T2, AIMP3 with the nanoluciferase large subunit at its N-terminus (LgBit-AIMP3) (human) (UniProt O43324); test: as above
T2 sequence: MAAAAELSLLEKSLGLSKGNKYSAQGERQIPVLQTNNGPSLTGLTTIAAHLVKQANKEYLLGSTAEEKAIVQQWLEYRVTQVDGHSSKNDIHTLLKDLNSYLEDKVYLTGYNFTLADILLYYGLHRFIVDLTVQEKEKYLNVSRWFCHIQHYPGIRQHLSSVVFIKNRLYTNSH

[4] = molecular target: human MRS catalytic main body (MRS 221-834) (human) (UniProt P56192); test: SEC; Superdex 200 10/300 column, Tris-HCl pH 7.5, 150 mM NaCl; molecular weights from a calibration curve of standards; both purified
[5] = molecular target: T3, AIMP3 with the nanoluciferase large subunit at its N-terminus (LgBit-AIMP3) (human), O43324; test: split reporter; NanoBiT; LgBit on the N- or C-terminus of AIMP3, SmBit on the N- or C-terminus of MRS or on AIMP3; co-expressed in CHO-K1 cells; luminescence measured with cell-permeable substrate; details: remark: other sources report otherwise
T3 chain: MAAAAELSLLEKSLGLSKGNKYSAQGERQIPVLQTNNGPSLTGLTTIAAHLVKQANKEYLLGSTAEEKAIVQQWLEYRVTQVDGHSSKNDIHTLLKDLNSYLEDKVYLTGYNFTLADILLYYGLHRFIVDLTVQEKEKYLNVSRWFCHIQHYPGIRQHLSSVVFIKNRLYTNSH

B2: MRS with the nanoluciferase small subunit at its C-terminus (MRS-SmBit) (enzyme, UniProt P56192 1-900)
chain: MRLFVSDGVPGCLPVLAAAGRARGRAEVLISTVGPEDCVVPFLTRPKVPVLQLDSGNYLFSTSAICRYFFLLSGWEQDDLTNQWLEWEATELQPALSAALYYLVVQGKKGEDVLGSVRRALTHIDHSLSRQNCPFLAGETESLADIVLWGALYPLLQDPAYLPEELSALHSWFQTLSTQEPCQRAAETVLKQQGVLALRPYLQKQPQPSPAEGRAVTNEPEEEELATLSEEEIAMAVTAWEKGLESLPPLRPQQNPVLPVAGERNVLITSALPYVNNVPHLGNIIGCVLSADVFARYSRLRQWNTLYLCGTDEYGTATETKALEEGLTPQEICDKYHIIHADIYRWFNISFDIFGRTTTPQQTKITQDIFQQLLKRGFVLQDTVEQLRCEHCARFLADRFVEGVCPFCGYEEARGDQCDKCGKLINAVELKKPQCKVCRSCPVVQSSQHLFLDLPKLEKRLEEWLGRTLPGSDWTPNAQFITRSWLRDGLKPRCITRDLKWGTPVPLEGFEDKVFYVWFDATIGYLSITANYTDQWERWWKNPEQVDLYQFMAKDNVPFHSLVFPCSALGAEDNYTLVSHLIATEYLNYEDGKFSKSRGVGVFGDMAQDTGIPADIWRFYLLYIRPEGQDSAFSWTDLLLKNNSELLNNLGNFINRAGMFVSKFFGGYVPEMVLTPDDQRLLAHVTLELQHYHQLLEKVRIRDALRSILTISRHGNQYIQVNEPWKRIKGSEADRQRAGTVTGLAVNIAALLSVMLQPYMPTVSATIQAQLQLPPPACSILLTNFLCTLPAGHQIGTVSPLFQKLENDQIESLRQRFGGGQAKTSPKPAVVETVTTAKPQQIQALMDEVTKQGNIVRELKAQKADKNEVAAEVAKLLDLKKQLAVAEGKPPEAPKGKKKK
binding [2]: binds | binding [3]: binds

B3: MRS with the nanoluciferase small subunit at its N-terminus (SmBit-MRS) (enzyme, human, UniProt P56192 1-900, looked up)
chain: MRLFVSDGVPGCLPVLAAAGRARGRAEVLISTVGPEDCVVPFLTRPKVPVLQLDSGNYLFSTSAICRYFFLLSGWEQDDLTNQWLEWEATELQPALSAALYYLVVQGKKGEDVLGSVRRALTHIDHSLSRQNCPFLAGETESLADIVLWGALYPLLQDPAYLPEELSALHSWFQTLSTQEPCQRAAETVLKQQGVLALRPYLQKQPQPSPAEGRAVTNEPEEEELATLSEEEIAMAVTAWEKGLESLPPLRPQQNPVLPVAGERNVLITSALPYVNNVPHLGNIIGCVLSADVFARYSRLRQWNTLYLCGTDEYGTATETKALEEGLTPQEICDKYHIIHADIYRWFNISFDIFGRTTTPQQTKITQDIFQQLLKRGFVLQDTVEQLRCEHCARFLADRFVEGVCPFCGYEEARGDQCDKCGKLINAVELKKPQCKVCRSCPVVQSSQHLFLDLPKLEKRLEEWLGRTLPGSDWTPNAQFITRSWLRDGLKPRCITRDLKWGTPVPLEGFEDKVFYVWFDATIGYLSITANYTDQWERWWKNPEQVDLYQFMAKDNVPFHSLVFPCSALGAEDNYTLVSHLIATEYLNYEDGKFSKSRGVGVFGDMAQDTGIPADIWRFYLLYIRPEGQDSAFSWTDLLLKNNSELLNNLGNFINRAGMFVSKFFGGYVPEMVLTPDDQRLLAHVTLELQHYHQLLEKVRIRDALRSILTISRHGNQYIQVNEPWKRIKGSEADRQRAGTVTGLAVNIAALLSVMLQPYMPTVSATIQAQLQLPPPACSILLTNFLCTLPAGHQIGTVSPLFQKLENDQIESLRQRFGGGQAKTSPKPAVVETVTTAKPQQIQALMDEVTKQGNIVRELKAQKADKNEVAAEVAKLLDLKKQLAVAEGKPPEAPKGKKKK
notes: methionyl-tRNA synthetase, cytosolic, human; source: CHO-K1 cells, transfected, in live cells; not shown: SmBit (NanoLuc small subunit), N-terminal, kept
binding [2]: binds

B5: AIMP3 (AARS-interacting multifunctional protein 3) (natural protein, human)
chain: MAAAAELSLLEKSLGLSKGNKYSAQGERQIPVLQTNNGPSLTGLTTIAAHLVKQANKEYLLGSTAEEKAIVQQWLEYRVTQVDGHSSKNDIHTLLKDLNSYLEDKVYLTGYNFTLADILLYYGLHRFIVDLTVQEKEKYLNVSRWFCHIQHYPGIRQHLSSVVFIKNRLYTNSH
notes: AIMP3, human; 'Genes for full-length human MRS (residues 1-900) and AIMP3' were cloned; the earlier structure (PDB 4bvx) used AIMP3 1-169; source: recombinant from pET30a or pQE80L plasmids, co-purified with MRS or MRS_(1-224)
binding [5]: no binding

Other lines, results leading:

binding [1]: no binding
B1: human MRS without the N-terminal GST domain (MRS 221-900) (domain or fragment, UniProt P56192 221-900)
chain: EEEELATLSEEEIAMAVTAWEKGLESLPPLRPQQNPVLPVAGERNVLITSALPYVNNVPHLGNIIGCVLSADVFARYSRLRQWNTLYLCGTDEYGTATETKALEEGLTPQEICDKYHIIHADIYRWFNISFDIFGRTTTPQQTKITQDIFQQLLKRGFVLQDTVEQLRCEHCARFLADRFVEGVCPFCGYEEARGDQCDKCGKLINAVELKKPQCKVCRSCPVVQSSQHLFLDLPKLEKRLEEWLGRTLPGSDWTPNAQFITRSWLRDGLKPRCITRDLKWGTPVPLEGFEDKVFYVWFDATIGYLSITANYTDQWERWWKNPEQVDLYQFMAKDNVPFHSLVFPCSALGAEDNYTLVSHLIATEYLNYEDGKFSKSRGVGVFGDMAQDTGIPADIWRFYLLYIRPEGQDSAFSWTDLLLKNNSELLNNLGNFINRAGMFVSKFFGGYVPEMVLTPDDQRLLAHVTLELQHYHQLLEKVRIRDALRSILTISRHGNQYIQVNEPWKRIKGSEADRQRAGTVTGLAVNIAALLSVMLQPYMPTVSATIQAQLQLPPPACSILLTNFLCTLPAGHQIGTVSPLFQKLENDQIESLRQRFGGGQAKTSPKPAVVETVTTAKPQQIQALMDEVTKQGNIVRELKAQKADKNEVAAEVAKLLDLKKQLAVAEGKPPEAPKGKKKK

binding [4]: no binding
B4: human MRS catalytic main body (MRS 221-834) (domain or fragment, UniProt P56192 221-834)
chain: EEEELATLSEEEIAMAVTAWEKGLESLPPLRPQQNPVLPVAGERNVLITSALPYVNNVPHLGNIIGCVLSADVFARYSRLRQWNTLYLCGTDEYGTATETKALEEGLTPQEICDKYHIIHADIYRWFNISFDIFGRTTTPQQTKITQDIFQQLLKRGFVLQDTVEQLRCEHCARFLADRFVEGVCPFCGYEEARGDQCDKCGKLINAVELKKPQCKVCRSCPVVQSSQHLFLDLPKLEKRLEEWLGRTLPGSDWTPNAQFITRSWLRDGLKPRCITRDLKWGTPVPLEGFEDKVFYVWFDATIGYLSITANYTDQWERWWKNPEQVDLYQFMAKDNVPFHSLVFPCSALGAEDNYTLVSHLIATEYLNYEDGKFSKSRGVGVFGDMAQDTGIPADIWRFYLLYIRPEGQDSAFSWTDLLLKNNSELLNNLGNFINRAGMFVSKFFGGYVPEMVLTPDDQRLLAHVTLELQHYHQLLEKVRIRDALRSILTISRHGNQYIQVNEPWKRIKGSEADRQRAGTVTGLAVNIAALLSVMLQPYMPTVSATIQAQLQLPPPACSILLTNFLCTLPAGHQIGTVSPLFQKLENDQIESLRQRFGGGQAKTSPKPAVVETV
